Laboratory results taken from PMC9652399.
These are yes or no findings as the source states them, for the method shown. In cells and extracts the contact can be indirect. Some entries that bind do so weakly or less than the wild type.

Amino acid sequences for entries named in this document (tags omitted). A change or cut given only in a name is not applied to a line headed by its entry. Chains listed by the source or under a name are the forms on record and can include a tag or linker. Residues count along the entry.
Siglec-6 (sialic acid-binding immunoglobulin-like lectin 6), wild type, FLAG-tagged (O43699, residues 27-453): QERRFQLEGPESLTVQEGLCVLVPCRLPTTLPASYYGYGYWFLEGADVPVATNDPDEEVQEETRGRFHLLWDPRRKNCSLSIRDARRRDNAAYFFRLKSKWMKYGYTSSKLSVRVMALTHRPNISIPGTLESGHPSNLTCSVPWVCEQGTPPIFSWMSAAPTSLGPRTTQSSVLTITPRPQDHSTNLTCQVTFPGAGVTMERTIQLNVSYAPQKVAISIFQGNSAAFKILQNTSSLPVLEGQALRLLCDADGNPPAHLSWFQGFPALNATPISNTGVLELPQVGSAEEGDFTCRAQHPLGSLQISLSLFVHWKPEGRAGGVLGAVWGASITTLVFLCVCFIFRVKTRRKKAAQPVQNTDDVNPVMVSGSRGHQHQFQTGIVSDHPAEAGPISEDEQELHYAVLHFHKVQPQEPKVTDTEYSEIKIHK
Siglec-6 Y426F (proximal ITIM mutant), FLAG-tagged (O43699, form named): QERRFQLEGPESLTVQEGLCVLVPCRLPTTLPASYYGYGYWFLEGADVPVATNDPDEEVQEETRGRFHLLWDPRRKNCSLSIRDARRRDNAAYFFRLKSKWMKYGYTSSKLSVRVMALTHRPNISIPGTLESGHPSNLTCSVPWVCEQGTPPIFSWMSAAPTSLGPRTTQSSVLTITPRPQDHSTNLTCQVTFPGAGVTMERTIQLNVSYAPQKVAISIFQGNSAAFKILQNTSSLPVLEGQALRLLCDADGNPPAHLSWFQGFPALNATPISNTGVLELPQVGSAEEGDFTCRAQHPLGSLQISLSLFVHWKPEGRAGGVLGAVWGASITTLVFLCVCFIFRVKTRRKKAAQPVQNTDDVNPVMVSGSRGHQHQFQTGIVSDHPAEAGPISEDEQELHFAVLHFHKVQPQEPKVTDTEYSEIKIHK
Siglec-6 Y446F (distal ITIM-like mutant), FLAG-tagged (O43699, form named): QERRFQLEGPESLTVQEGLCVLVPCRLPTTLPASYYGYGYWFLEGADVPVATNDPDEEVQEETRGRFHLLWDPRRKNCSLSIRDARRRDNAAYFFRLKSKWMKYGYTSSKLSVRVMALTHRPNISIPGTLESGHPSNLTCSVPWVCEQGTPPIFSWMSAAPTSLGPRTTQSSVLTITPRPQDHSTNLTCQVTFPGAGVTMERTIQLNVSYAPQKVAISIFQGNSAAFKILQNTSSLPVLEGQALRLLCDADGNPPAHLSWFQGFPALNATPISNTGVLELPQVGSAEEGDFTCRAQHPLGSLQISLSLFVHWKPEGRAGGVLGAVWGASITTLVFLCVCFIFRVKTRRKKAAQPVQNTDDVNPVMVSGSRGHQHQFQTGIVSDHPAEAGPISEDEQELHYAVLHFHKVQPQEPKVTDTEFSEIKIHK
UniProt P29351: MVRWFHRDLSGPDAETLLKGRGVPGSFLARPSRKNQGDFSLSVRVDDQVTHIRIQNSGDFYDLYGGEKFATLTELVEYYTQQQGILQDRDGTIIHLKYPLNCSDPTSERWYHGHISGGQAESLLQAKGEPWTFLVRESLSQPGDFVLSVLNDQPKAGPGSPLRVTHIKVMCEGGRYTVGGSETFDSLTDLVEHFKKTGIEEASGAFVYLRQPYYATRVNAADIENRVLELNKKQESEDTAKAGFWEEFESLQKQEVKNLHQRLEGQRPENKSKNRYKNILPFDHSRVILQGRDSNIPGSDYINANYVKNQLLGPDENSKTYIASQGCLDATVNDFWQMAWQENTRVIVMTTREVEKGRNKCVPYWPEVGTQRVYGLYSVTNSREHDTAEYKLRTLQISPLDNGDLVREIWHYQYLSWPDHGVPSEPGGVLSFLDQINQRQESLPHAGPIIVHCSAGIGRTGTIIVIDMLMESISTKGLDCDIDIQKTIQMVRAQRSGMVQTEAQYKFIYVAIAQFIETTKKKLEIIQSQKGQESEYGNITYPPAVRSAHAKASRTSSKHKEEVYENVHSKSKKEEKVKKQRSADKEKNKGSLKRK

Key:
Test in all cases: co-IP; anti-FLAG magnetic agarose IP (30 min, room temperature) from lysates (Pierce IP lysis buffer) of mouse BMMCs co-transfected with WT or mutant Siglec-6-FLAG and Shp-1-HA or Shp-2-HA; cells treated with pervanadate for 2 min; blots for HA, Shp-1/2, FLAG and p-Tyr
[1] = molecular target: Siglec-6 Y426F (proximal ITIM mutant), FLAG-tagged (human) (UniProt O43699)
[2] = molecular target: Siglec-6 (sialic acid-binding immunoglobulin-like lectin 6), wild type, FLAG-tagged (human) (UniProt O43699)
[3] = molecular target: Siglec-6 Y446F (distal ITIM-like mutant), FLAG-tagged (human) (UniProt O43699)

Measured: binding

Shp-1, HA-tagged (from UniProt P29351 1-595) (enzyme)
binds: all assays above
